Record: PubChem BioAssay AID1224830 (NIAID, 2016)
This is an unselected part of about 18,000 reagents tested. Of all reagents, about 2,900 (16%) got an active call. 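Calls are made per well; low scores hint the gene aids the LPS response, high scores that it dampens it.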 Repeated entries: four replicate wells of each siRNA pool.

Assay: 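Regulators of TLR4 signalling towards TNF-alpha in macrophage-like cells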 (primary screen)
System: human THP-1 monocytic leukaemia cells, TNF dual-luciferase reporter clone, PMA-differentiated to macrophage-like cells
Reagents: siRNA pool against human genes, 50 nM
Duration: LPS for 4 h, given about 3 days after siRNA transfection
Conditions: bacterial LPS (TLR4 ligand), 10 ng/ml
Measurement: 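Ratio of firefly to renilla light, scaled to the plate median and expressed as a robust z-score per replicate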
Reading the numbers: TNF reporter robust z-score: higher = stronger TNF reporter response to LPS
Hit rule: 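a well is active when its z-score exceeds 2.8 or falls below -1.5; control wells carry no call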

gene	TNF reporter robust z-score	activity call
ARHGEF1 (GeneID 9138)	1.91	inactive
ARHGEF1 (GeneID 9138)	2.17	inactive
ARHGEF1 (GeneID 9138)	2.44	inactive
ARHGEF1 (GeneID 9138)	-0.51	inactive
EPS8 (GeneID 2059)	-1.64	active
EPS8 (GeneID 2059)	-1.23	inactive
EPS8 (GeneID 2059)	-1.33	inactive
EPS8 (GeneID 2059)	-1.24	inactive
ASIP (GeneID 434)	-0.53	inactive
ASIP (GeneID 434)	-1.46	inactive
ASIP (GeneID 434)	-0.77	inactive
ASIP (GeneID 434)	-0.52	inactive
CBX8 (GeneID 57332)	-0.62	inactive
CBX8 (GeneID 57332)	-0.1	inactive
CBX8 (GeneID 57332)	-0.9	inactive
CBX8 (GeneID 57332)	-0.04	inactive
DMAC2 (GeneID 55101)	0.33	inactive
DMAC2 (GeneID 55101)	1.01	inactive
DMAC2 (GeneID 55101)	0.55	inactive
DMAC2 (GeneID 55101)	0.72	inactive
GLIS3 (GeneID 169792)	-0.84	inactive
GLIS3 (GeneID 169792)	0.89	inactive
GLIS3 (GeneID 169792)	0.13	inactive
GLIS3 (GeneID 169792)	0.24	inactive
ARIH1 (GeneID 25820)	0.87	inactive
ARIH1 (GeneID 25820)	0.96	inactive
ARIH1 (GeneID 25820)	-0.1	inactive
ARIH1 (GeneID 25820)	-0.4	inactive
UTP18 (GeneID 51096)	-0.83	inactive
UTP18 (GeneID 51096)	-0.57	inactive
UTP18 (GeneID 51096)	-0.99	inactive
UTP18 (GeneID 51096)	-0.41	inactive
TMEM117 (GeneID 84216)	-0.19	inactive
TMEM117 (GeneID 84216)	1.19	inactive
TMEM117 (GeneID 84216)	0.06	inactive
TMEM117 (GeneID 84216)	-0.36	inactive
USP48 (GeneID 84196)	0.34	inactive
USP48 (GeneID 84196)	0.62	inactive
USP48 (GeneID 84196)	-0.48	inactive
USP48 (GeneID 84196)	0.3	inactive
CHRM2 (GeneID 1129)	-0.82	inactive
CHRM2 (GeneID 1129)	-1.13	inactive
CHRM2 (GeneID 1129)	-0.71	inactive
CHRM2 (GeneID 1129)	0.67	inactive
CDH11 (GeneID 1009)	2.16	inactive
CDH11 (GeneID 1009)	1.89	inactive
CDH11 (GeneID 1009)	0.79	inactive
CDH11 (GeneID 1009)	0.8	inactive
XRCC4 (GeneID 7518)	2.36	inactive
XRCC4 (GeneID 7518)	5.8	active
XRCC4 (GeneID 7518)	1.64	inactive
XRCC4 (GeneID 7518)	2.01	inactive
LYPD5 (GeneID 284348)	0.24	inactive
LYPD5 (GeneID 284348)	1	inactive
LYPD5 (GeneID 284348)	0.52	inactive
LYPD5 (GeneID 284348)	1.82	inactive
FUNDC1 (GeneID 139341)	1.84	inactive
FUNDC1 (GeneID 139341)	0.31	inactive
FUNDC1 (GeneID 139341)	0.53	inactive
FUNDC1 (GeneID 139341)	-1.99	active
TRIM64B (GeneID 642446)	-1.66	active
TRIM64B (GeneID 642446)	-1.05	inactive
TRIM64B (GeneID 642446)	0.18	inactive
TRIM64B (GeneID 642446)	0.98	inactive
ABCE1 (GeneID 6059)	0.24	inactive
ABCE1 (GeneID 6059)	-0.23	inactive
ABCE1 (GeneID 6059)	0.63	inactive
ABCE1 (GeneID 6059)	0.61	inactive
GABARAP (GeneID 11337)	-0.21	inactive
GABARAP (GeneID 11337)	3.97	active
GABARAP (GeneID 11337)	0.69	inactive
GABARAP (GeneID 11337)	2	inactive
ZSCAN1 (GeneID 284312)	0.07	inactive
ZSCAN1 (GeneID 284312)	1.45	inactive
ZSCAN1 (GeneID 284312)	-1.31	inactive
ZSCAN1 (GeneID 284312)	-0.54	inactive
RNF4 (GeneID 6047)	-0.07	inactive
RNF4 (GeneID 6047)	0.64	inactive
RNF4 (GeneID 6047)	0.25	inactive
RNF4 (GeneID 6047)	0.35	inactive
PLEKHN1 (GeneID 84069)	-1.07	inactive
PLEKHN1 (GeneID 84069)	2.16	inactive
PLEKHN1 (GeneID 84069)	0.63	inactive
PLEKHN1 (GeneID 84069)	0.43	inactive
CTNND2 (GeneID 1501)	0.5	inactive
CTNND2 (GeneID 1501)	0.7	inactive
CTNND2 (GeneID 1501)	0.25	inactive
CTNND2 (GeneID 1501)	0.6	inactive
SLC38A2 (GeneID 54407)	-0.03	inactive
SLC38A2 (GeneID 54407)	0.34	inactive
SLC38A2 (GeneID 54407)	1.5	inactive
SLC38A2 (GeneID 54407)	2.33	inactive
NMRK2 (GeneID 27231)	2.57	inactive
NMRK2 (GeneID 27231)	3.06	active
NMRK2 (GeneID 27231)	2.59	inactive
NMRK2 (GeneID 27231)	2.01	inactive
SESN2 (GeneID 83667)	0.29	inactive
SESN2 (GeneID 83667)	-0.68	inactive
SESN2 (GeneID 83667)	-0.36	inactive
SESN2 (GeneID 83667)	0.65	inactive
FHIP2A (GeneID 57700)	-0.27	inactive
FHIP2A (GeneID 57700)	-0.1	inactive
FHIP2A (GeneID 57700)	0.27	inactive
FHIP2A (GeneID 57700)	0.49	inactive
PRKCG (GeneID 5582)	-0.66	inactive
PRKCG (GeneID 5582)	0.76	inactive
PRKCG (GeneID 5582)	-0.56	inactive
PRKCG (GeneID 5582)	-0.54	inactive
CCDC83 (GeneID 220047)	0.61	inactive
CCDC83 (GeneID 220047)	0.28	inactive
CCDC83 (GeneID 220047)	-0.77	inactive
CCDC83 (GeneID 220047)	0.97	inactive
RSL24D1 (GeneID 51187)	-0.14	inactive
RSL24D1 (GeneID 51187)	0.22	inactive
RSL24D1 (GeneID 51187)	-0.13	inactive
RSL24D1 (GeneID 51187)	-0.09	inactive
USP39 (GeneID 10713)	-1.45	inactive
USP39 (GeneID 10713)	-0.48	inactive
USP39 (GeneID 10713)	-0.06	inactive
USP39 (GeneID 10713)	-0.02	inactive
SMIM21 (GeneID 284274)	1.34	inactive
SMIM21 (GeneID 284274)	0.82	inactive
SMIM21 (GeneID 284274)	-0.16	inactive
DGAT1 (GeneID 8694)	1.76	inactive
DGAT1 (GeneID 8694)	2.89	active
DGAT1 (GeneID 8694)	2.66	inactive
DGAT1 (GeneID 8694)	4.15	active
GTF2IRD1 (GeneID 9569)	-1.25	inactive
GTF2IRD1 (GeneID 9569)	-0.38	inactive
GTF2IRD1 (GeneID 9569)	-1.15	inactive
GTF2IRD1 (GeneID 9569)	0.01	inactive
ELAC2 (GeneID 60528)	0.48	inactive
ELAC2 (GeneID 60528)	0.87	inactive
ELAC2 (GeneID 60528)	-0.12	inactive
ELAC2 (GeneID 60528)	-0.11	inactive
OVCH1 (GeneID 341350)	0.46	inactive
OVCH1 (GeneID 341350)	1.25	inactive
OVCH1 (GeneID 341350)	1.8	inactive
OVCH1 (GeneID 341350)	-0.78	inactive
GPT (GeneID 2875)		inactive
GPT (GeneID 2875)	1.43	inactive
GPT (GeneID 2875)	2.96	active
GPT (GeneID 2875)	1.91	inactive
GPT (GeneID 2875)	2.31	inactive
